Test results as given in the supplement of paper PMC6078165.
Values are relative to the signal before dosing, not to a vehicle control; the signal also falls without drug.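 Labels refer to human fibroblasts, largely primary: uterine (C12385, HUF), lung (H6013), bone (Hs27A), adrenal (HADF), skin (WS1), plus mammary HMF and breast cancer-associated Hs343T. Cancer lines are basal-like or mesenchymal-like triple-negative breast cancer. The paper counts as hits responses shifting over 3x the replicate standard deviation. The tissue of the other fibroblasts is not given here.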

Test system: MDAMB231
Assay: relative JC-1 red fluorescence (viability) vs pre-drug, coculture with fibroblast (fraction); higher = more viable cancer cells
Experimental: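 JC-1 labelled TNBC cells cocultured 1:1 (1,500 cells each) with CellTrace Violet stained primary or stromal fibroblasts in 384-well plates in FluoroBrite medium, treated with one of 42 anticancer drugs at 0.1, 1, 10 or 100 uM. JC-1 red fluorescence (mitochondrial integrity in cancer cells only) was read by plate reader every 8 h for 72 h. Values are normalised to each well's pre-drug value. The stock of one drug was tenfold lower, so its dose labels may be too high.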

O=C(O)C1(C(=O)O)CCC1.[NH2-].[NH2-].[Pt+2] [Carboplatin]
relative JC-1 red fluorescence
Conditions	8 h	16 h	24 h	32 h	40 h	48 h	56 h	64 h	72 h
10 µM, coculture fibroblast: C12385	0.801	0.817	0.6373	0.671	0.598	0.563	0.509	0.488	0.459
10 µM, coculture fibroblast: H6013	0.904	0.8438	0.811	0.7855	0.739	0.703	0.692	0.6585	0.63
10 µM, coculture fibroblast: H6019	0.839	0.84	0.749	0.79	0.754	0.722	0.665	0.625	0.574
10 µM, coculture fibroblast: H6076	0.892	0.794	0.701	0.676	0.623	0.577	0.543	0.53	0.516
10 µM, coculture fibroblast: H6231	0.896	0.819	0.757	0.707	0.675	0.647	0.5987	0.576	0.545
10 µM, coculture fibroblast: HADF	0.894	0.8506	0.7942	0.7606	0.713	0.653	0.638	0.614	0.563
10 µM, coculture fibroblast: HCFa	0.8927	0.8273	0.787	0.74355	0.691	0.647	0.6195	0.5879	0.5328
10 µM, coculture fibroblast: HCPF	0.91	0.808	0.706	0.676	0.605	0.561	0.515	0.483	0.453
10 µM, coculture fibroblast: HHSteC	0.919	0.859	0.81	0.764	0.721	0.695	0.657	0.624	0.587
10 µM, coculture fibroblast: HMF	0.9113	0.8225	0.744	0.705	0.657	0.616	0.572	0.543	0.512
10 µM, coculture fibroblast: HPFa	0.929	0.89	0.84	0.787	0.755	0.725	0.672	0.633	0.565
10 µM, coculture fibroblast: HUF	0.8327	0.733	0.696	0.587	0.502	0.474	0.416	0.396	0.363
10 µM, coculture fibroblast: Hs5	0.952	0.87	0.779	0.719	0.661	0.603	0.549	0.523	0.495
10 µM, coculture fibroblast: Hs27A	0.8835	0.83475	0.7922	0.7671	0.709	0.65	0.652	0.635	0.587
10 µM, coculture fibroblast: Hs343T	0.917	0.821	0.72	0.675	0.616	0.57	0.512	0.481	0.457
10 µM, coculture fibroblast: WS1	0.772	0.704	0.608	0.574	0.508	0.468	0.413	0.3962	0.36584
100 µM, coculture fibroblast: C12385	0.739	0.685	0.725	0.639	0.606	0.568	0.539	0.565	0.557
100 µM, coculture fibroblast: H6013	0.902	0.868	0.831	0.821	0.788	0.777	0.755	0.734	0.688
100 µM, coculture fibroblast: H6019	0.779	0.73	0.792	0.725	0.703	0.698	0.667	0.675	0.651
100 µM, coculture fibroblast: H6076	0.791	0.736	0.7344	0.7259	0.7144	0.6982	0.704	0.707	0.72
100 µM, coculture fibroblast: H6231	0.892	0.82	0.761	0.729	0.676	0.65	0.617	0.596	0.575
100 µM, coculture fibroblast: HADF	0.882	0.868	0.831	0.802	0.767	0.731	0.7062	0.69	0.629
100 µM, coculture fibroblast: HCFa	0.8812	0.83484	0.791	0.74	0.702	0.669	0.633	0.613	0.572
100 µM, coculture fibroblast: HCPF	0.8053	0.718	0.671	0.66	0.6141	0.585	0.561	0.535	0.5253
100 µM, coculture fibroblast: HHSteC	0.901	0.863	0.817	0.775	0.735	0.717	0.667	0.652	0.608
100 µM, coculture fibroblast: HMF	0.879	0.815	0.784	0.767	0.729	0.685	0.669	0.642	0.609
100 µM, coculture fibroblast: HPFa	0.9125	0.8963	0.8697	0.8181	0.7985	0.769	0.719	0.694	0.6551
100 µM, coculture fibroblast: HUF	0.826	0.749	0.789	0.675	0.617	0.618	0.57	0.586	0.573
100 µM, coculture fibroblast: Hs5	0.847	0.7855	0.748	0.709	0.674	0.625	0.613	0.599	0.575
100 µM, coculture fibroblast: Hs27A	0.87628	0.8488	0.814	0.792	0.751	0.72	0.717	0.714	0.668
100 µM, coculture fibroblast: Hs343T	0.8439	0.76	0.698	0.654	0.594	0.55	0.507	0.486	0.454
100 µM, coculture fibroblast: WS1	0.732	0.671	0.664	0.583	0.543	0.525	0.488	0.494	0.478
